According to US20230036041A1, “SORTILIN BINDING CONJUGATE COMPOUNDS, COMPOSITIONS AND USES THEREOF FOR TREATING CANCER” (THERATECHNOLOGIES INC., priority 2019, published 2023):
“Also recorded” adds a separate entry of the source. At least one compound was matched to its structure with a doubt left. Non-standard residues stand in square brackets, D forms with d. Residues, ends and D or L forms follow the SMILES beside them. *: point of attachment. X1 = CC(=O)O[C@@]12CO[C@@H]1C[C@H](O)[C@@]1(C)C(=O)[C@H](O)C3=C(C)[C@@H](OC(=O)[C@H](OC(=O)CCC(=O)*)[C@@H](NC(=O)OC(C)(C)C)c4ccccc4)C[C@@](O)([C@@H](OC(=O)c4ccccc4)[C@H]21)C3(C)C; Nle = CCCC[C@H](N)C(=O)O

Columns and labels:
MDA-MB-231 cells [1] = experiment: apoptosis of MDA-MB-231 cells; format: cell-based, human
MDA-MB-231 microtubules = experiment: immunostaining of α-tubulin, microtubules polymerization; format: cell-based, human; details: MDA-MB-231, FIG. 9
MDA-MB-231 cells [2] = experiment: cell migration; format: cell-based, human; details: FIG. 10
[3] = system: MDA-MB-231 s.c. xenografts; experiment: TNBC tumor growth in MDA-MB-231 s.c. xenografts (Example 1); format: in vivo, mice; details: docetaxel 3.75 mg/kg (¼ MTD), TH1902 at equivalent docetaxel dose, FIG. 14
[4] = system: AN3-CA endometrial xenograft tumor; format: in vivo, mice
Experimental: (§1) Briefly, stock solution of formulated TH1902 was prepared as sterile aliquots of 10 mg/mL frozen liquid solutions (see below). On the day of animal dosing, frozen aliquots were thawed 30 minutes at room temperature then diluted with sterile 5% dextrose injection, USP (D5W) to the desired concentration for injection (i.e. typically 5.4 or 1.35 mg/mL).
(§2) TH1902 frozen stock solution were prepared as follow: • 1. Make the TH1902 diluent solution (Diluent) the day before the solubilization. Diluent: 10% Tween™ 80 in D5W USP (w/v) with 0.04% of formic acid (v/v), ˜pH 2.9. Leave solution at room temperature until TH1902 solubilization (next day). • 2. Weigh 60 mg of TH1902 API into a 14 ml glass vial with screw caps. Adjust TH1902 weights to reflect TH1902 purity according to the certificate of analysis. • 3. […] Transfer the formulation to a graduated glass cylinder and bring to final calculated volume with diluent solution. • 9. […] Perform UPLC analysis against a TH1902 standard curve for quantification and purity assessment. • 11. […]
Three human sortilin-positive gynecological cancer cell lines (ovary: ES-2 and SKOV-3/Luc, endometrial: AN3-CA) were used for to assess the chemotherapeutic activity of TH1902 in vivo using xenograft models in immunodeficient mice. […] Body weights of the mice administered with docetaxel, TH1902 or vehicle were monitored as a gross indicator of morbidity. […]

[5] = system: HT29 colorectal xenograft tumors; experiment: colorectal cancer xenograft model (HT-29); format: in vivo, mice; details: equivalent highest dose, FIG. 25
Experimental: as §1
as §2, with “3. Add 90% of diluent solution needed to prepare the TH1902 10 mg/ml stock solution. • 4. Swirl the content of the bottle to form opaque mixture and place a stir bar. • 5. Place bottle in the heating apparatus (glass water bath and mount for holding vial with thermometer and stir bar on a digital heating plate). Begin mixing the content of the bottle. • 6.” for “3.”

[6] = system: PANC-1 subcutaneous tumor xenografts; experiment: pancreatic cancer xenograft model (PANC-1); format: in vivo, mice; details: vs vehicle
Experimental: as §1
as §2, with “3. Add 90% of diluent solution needed to prepare the TH1902 10 mg/ml stock solution. • 4. Swirl the content of the bottle to form opaque mixture and place a stir bar. • 5. Place bottle in the heating apparatus (glass water bath and mount for holding vial with thermometer and stir bar on a digital heating plate). Begin mixing the content of the bottle. • 6.” for “3.”

[7] = system: murine B16-F10 cancer cells; experiment: syngeneic melanoma tumor model (B16-F10); format: in vivo, mice
Experimental: as §1
as §2, with “3. Add 90% of diluent solution needed to prepare the TH1902 10 mg/ml stock solution. • 4. Swirl the content of the bottle to form opaque mixture and place a stir bar. • 5. Place bottle in the heating apparatus (glass water bath and mount for holding vial with thermometer and stir bar on a digital heating plate). Begin mixing the content of the bottle. • 6. Gradually increase the temperature of water bath in increments of 5° C. every 30 minutes until mixture turns clear (temperature ramping up to 45° C. over a period of time of about 165 to 180 minutes).” for “3.”
For FIG. 28A, immunocompetent mice bearing B16-F10 xenografts were repeatedly injected intravenously (arrows indicate injection days) with vehicle or with vehicle containing equivalent of docetaxel (15 mg/kg/week) or TH1902 (35 mg/kg/week). In FIG. 28B, the effects of TH1902 and docetaxel on tumor progression at day-14 are presented by subtracting the initial tumor volumes at day-0 to the tumor volumes measured at day-14 when tumors of the vehicle group reached the endpoint limits. […]

CCCC[C@H](NC(=O)[C@H](CC(N)=O)NC(=O)[C@H](CCCNC(=N)N)NC(=O)[C@@H](NC(=O)CNC(=O)[C@H](C)NC(=O)[C@H](CCCCNC(=O)CCC(=O)O[C@@H](C(=O)O[C@H]1C[C@@]2(O)[C@@H](OC(=O)c3ccccc3)[C@@H]3[C@]4(OC(C)=O)CO[C@@H]4C[C@H](O)[C@@]3(C)C(=O)[C@H](O)C(=C1C)C2(C)C)[C@@H](NC(=O)OC(C)(C)C)c1ccccc1)NC(=O)[C@H](C)NC(=O)[C@H](CCCNC(=N)N)NC(=O)[C@@H](NC(=O)CNC(C)=O)C(C)C)C(C)C)C(=O)N[C@@H](Cc1ccccc1)C(=O)N[C@@H](CCCCNC(=O)CCC(=O)O[C@@H](C(=O)O[C@H]1C[C@@]2(O)[C@@H](OC(=O)c3ccccc3)[C@@H]3[C@]4(OC(C)=O)CO[C@@H]4C[C@H](O)[C@@]3(C)C(=O)[C@H](O)C(=C1C)C2(C)C)[C@@H](NC(=O)OC(C)(C)C)c1ccccc1)C(=O)N[C@@H](CO)C(=O)N[C@@H](CCC(=O)O)C(=O)N[C@@H](CO)C(=O)N[C@@H](Cc1ccc(O)cc1)C(=O)O [TH1902, Acetyl-GVRAK(docetaxel)AGVRN(Nle)FK(docetaxel)SESY] (Ac-GVRAK(X1)AGVRN[Nle]FK(X1)SESY-OH)
reversal of TH1902-induced apoptosis by sortilin ligands (MDA-MB-231 cells [1]; FIG. 8): reversed by sortilin ligands TH19P01, neurotensin and progranulin
apoptosis of MDA-MB-231 cells (MDA-MB-231 cells [1]; compared with docetaxel, FIG. 7): stronger than that of docetaxel
microtubules polymerization (immunostaining of α-tubulin) (MDA-MB-231 microtubules): alter MDA-MB-231 microtubules polymerization
cell migration (MDA-MB-231 cells [2]): inhibited in a sortilin-dependent manner
tumor growth inhibition, low dose [3]: significant improvement of efficacy
tumor growth, low dose ([4]; 3.75 mg/kg TH1902 (same amount of contained docetaxel), FIG. 24): inhibited tumor growth
mice with prolonged tumor regression ([4]; highest dose of TH1902, mice/mice in group): 5/6
tumor growth, highest dose [5]: strong inhibition of HT29 tumor growth
tumor growth / tumor size, low dose ([6]; docetaxel 3.75 mg/kg, TH1902 8.75 mg/kg, day 21 and extended): Decreased tumor growth; also recorded: inhibited tumor growth; also recorded: significant decreases in tumor size
tumor growth / tumor size, high dose ([6]; docetaxel 15 mg/kg (MTD), TH1902 35 mg/kg, day 21): regression in tumor size; also recorded: remission
tumor growth at the highest dose, dose-response study ([7]; TH1902 23 mg/kg/bi-weekly, docetaxel 10 mg/kg/bi-weekly): clear and long-lasting regressions
tumor growth / tumor size, first study ([7]; TH1902 35 mg/kg/week, docetaxel 15 mg/kg/week, endpoint day-14, FIG. 28): tumor regressions; also recorded: much smaller than tumors from the two other groups
tumor growth inhibition, dose-response study ([7]; docetaxel 5, 7.5 and 10 mg/kg/bi-weekly, TH1902 11.5, 17.25 and 23 mg/kg/bi-weekly, IV bolus, day-12, FIG. 29): much stronger tumor growth inhibition at all doses; also recorded: tumor regressions were clearly observed
